Results: PubChem BioAssay AID662 (National Center for Advancing Translational Sciences (NCATS), 2007)
The other results are listed elsewhere or left out. Further columns of the screen follow, without active or inactive calls. Compounds called inactive in the main read-out are mostly missing here. The note in brackets gives the kind of curve behind each potency; many fits are weak.

assay: Cell signaling CRE-BLA (Fsk stim); details: CHO CRE-bla reporter (cAMP response element driving beta-lactamase), forskolin EC10, beta-lactamase ratio; measured here: 460 nm blue channel
In short: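 Cells were plated overnight at 37 °C, exposed to compound titrations plus EC10 NKH 477 for 3 h, then given CCF4 dye for 2 h at room temperature. Blue/green (460/530 nm) ratio was converted to %Activity and AC50 values calculated.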

Structure (SMILES) | AC50
Brc1ccc(-c2nn3c(-c4ccccn4)nnc3s2)o1 | 10 µM [rising, single point]
CCCc1cc2c(n1CCc1ccc(Cl)cc1)C(C)C1CN(C(=O)c3ccccc3)C(C)(C(=O)OC)C21 (stereo unspecified) | 5.01 µM [rising, partial curve]
CCCCn1c(SCC(=O)c2cc(OC)ccc2OC)nc2cc(S(N)(=O)=O)ccc21 | 10 µM [rising, single point]
COC(=O)c1ccccc1NC(=O)CSc1ccccc1 | 0.00316 µM [falling, full curve, poor fit]
COc1ccccc1CNC(=O)c1cc2c(=O)n(C)c3ccccc3c2n1C | 3.16 µM [rising, single point]
CNC(=O)c1cc2ccc(OC)cc2oc1=O | 12.6 µM [rising, single point]
COc1cccc(C(=O)Nc2ccc3nc(N4CCOCC4)cc(C)c3c2)c1 | 10 µM [rising, single point]
CCOC(=O)CN1C(=O)C(C)(C)Oc2ccc(C(=O)Nc3ccccc3OC)cc21 | 0.0316 µM [rising, full curve, poor fit]
CC1=C(C(=O)OC(C)C)C(C2CC=CCC2)NC(=O)N1 (stereo unspecified) | 0.00398 µM [falling, full curve, poor fit]
CCOC(=O)c1ccc2ncc(C(=O)OCC)c(NCCCN3CCOCC3)c2c1 | 10 µM [rising, partial curve]
CN(C)c1ncc2nc(-c3cccs3)c(=O)n(C[C@H]3CCCO3)c2n1 | 2 µM [rising, partial curve]
CCn1cc(C(=O)NCc2ccc(OC)cc2OC)c(=O)c2ccc(C)nc21 | 1.58 µM [rising, full curve, poor fit]
COc1cccc(Cn2c(=O)c(CCc3ccccc3)nc3cnc(OC)nc32)c1 | 10 µM [rising, partial curve]
COc1ccccc1CNc1cc(-c2ccccc2Cl)ncn1 | 10 µM [rising, single point]
CCCCCNC(=O)c1ccc2c(=O)n(CC3CCCO3)c(=O)[nH]c2c1 (stereo unspecified) | 0.794 µM [rising, partial curve]
C=CCn1c(N)c(C(=O)OCC(C)C)c2nc3ccccc3nc21 | 10 µM [rising, partial curve]
COCCCNC(=O)CCCn1c(=O)[nH]c2ccccc2c1=O | 25.1 µM [falling, single point]
CC(=O)COc1ccc2c3c(c(=O)oc2c1C)CCCCC3 | 1 µM [rising, partial curve]
CCCn1c(=O)c2c(ncn2C)n(CCC)c1=O | 15.8 µM [rising, partial curve]
Cc1c(C(=O)OCc2ccccc2)[nH]c2c1C(=O)CC(c1ccco1)C2 (stereo unspecified) | 0.794 µM [rising, full curve]
COc1ccc(OC)c(C2CC(=O)C3=C(C2)NC(=O)CC3c2ccc(O)c(OC)c2)c1 (stereo unspecified) | 25.1 µM [rising, single point]
c1ccc(N2CCOCC2)c(Nc2nc3ccccc3n3cnnc23)c1 | 5.01 µM [rising, partial curve]

Structure (SMILES) | AC50
CN1CCN(c2nc(NCCOC34CC5CC(CC(C5)C3)C4)nc(OCC(F)(F)F)n2)CC1 | 10 µM [rising, partial curve]
COc1cc(O)c2c(=O)cc(-c3ccccc3)oc2c1 | 25.1 µM [falling, partial curve, poor fit]
CC(C)[C@H](NC(=O)Nc1ccc2c(c1)OCCO2)C(=O)O | 2.51 µM [falling, partial curve]
COc1cccc(Cn2c(=O)c(-c3ccc(F)cc3)nc3cnc(N4CCNCC4)nc32)c1 | 1.58 µM [rising, full curve]
CCOc1cccc(NC(=O)C2CC(=O)N(C)C(=Nc3ccccc3)S2)c1 (stereo unspecified) | 25.1 µM [rising, single point]
O=C(NCCN1CCc2ccccc2C1)C1CCN(S(=O)(=O)N2CCC3(CC2)OCCO3)CC1 | 1 µM [falling, single point]
CN1CCN(c2nc3cc(C(F)(F)F)ccc3n3cccc23)CC1 | 25.1 µM [rising, partial curve]
COc1ccc(-c2nn(C)c3sc(C(=O)NCc4ccco4)cc23)cc1OC | 3.16 µM [rising, single point]
Nc1c(S(=O)(=O)c2cccc(Cl)c2)c2nc3ccccc3nc2n1/N=C/c1ccc(O)c(O)c1 | 12.6 µM [falling, partial curve]
Cc1cccc2cc3c(N)c(C#N)sc3nc12 | 12.6 µM [rising, partial curve]
Cc1cc(C)c2nc(N3CCCN(C(=O)c4ccco4)CC3)c(C#N)cc2c1 | 10 µM [rising, partial curve]
COc1cccc(-c2cc(NCCc3c[nH]c4ccc(OC)cc34)ncn2)c1 | 5.01 µM [rising, partial curve]
COc1ccc(CC(=O)Nc2nccs2)cc1OC | 12.6 µM [rising, single point]
c1ccc(-n2nnc3ccccc32)nc1 | 0.01 µM [falling, full curve, poor fit]
Cc1nn(C)c(C)c1CNC(=O)c1nn2c(c1Cl)NC(c1cccs1)CC2C(F)(F)F (stereo unspecified) | 2 µM [falling, partial curve, poor fit]
CC(=O)N1CCC2(CC1)C(C#N)=C(N)Oc1c2sc2nc(C)cc(C)c12 | 2.51 µM [rising, full curve, poor fit]
CCCCCCOC(=O)C(C#N)c1nc2ccccc2nc1N1CCN(CC)CC1 (stereo unspecified) | 25.1 µM [rising, single point]
O=S(=O)(NCCNC/C=C\c1ccc(Br)cc1)c1cccc2cnccc12 | 15.8 µM [falling, partial curve]
Cc1nc2cnc(N3CCN(C)CC3)nc2n(CCc2ccccc2)c1=O | 12.6 µM [rising, partial curve]
CCOC(=O)c1[nH]c2ccc(F)cc2c1NC(=O)C1=COCCO1 | 10 µM [rising, partial curve]
CCc1nc(SCC(=O)Nc2ccccc2C(=O)OC)n[nH]1 | 0.00398 µM [falling, full curve]
O=C(c1ccc(CNS(=O)(=O)c2ccccc2)cc1)N1CCN(c2ccccn2)CC1 | 0.01 µM [falling, full curve, poor fit]

Structural class: the entries above with bromine
Structure (SMILES) | AC50
Brc1ccc(-c2nn3c(-c4ccccn4)nnc3s2)o1 | 10 µM [rising, single point]
O=S(=O)(NCCNC/C=C\c1ccc(Br)cc1)c1cccc2cnccc12 | 15.8 µM [falling, partial curve]

(listing goes on)

Structure (SMILES) | AC50
CC(C)Cn1c(N)c(C(=O)NCCN2CCOCC2)c2nc3ccccc3nc21 | 10 µM [rising, partial curve]
CC(=O)c1ccc2c3c(ccc(O)c13)CC2 | 0.1 µM [rising, full curve]
N#Cc1c(N)n(C2CCCCC2)c2nc3ccccc3nc12 | 15.8 µM [falling, partial curve]
CC1(C)CC[C@]2(C(=O)O)CC[C@]3(C)C(=CC[C@@H]4[C@@]5(C)CC[C@H](O)C(C)(C)[C@@H]5CC[C@@]43C)[C@@H]2C1 | 0.0158 µM [rising, full curve, poor fit]
CCOc1cc2[nH]c(=O)n(CCC(=O)NCCc3ccccc3)c(=O)c2cc1OCC | 5.01 µM [falling, single point]
CCOC(=O)c1ccc(NC(=O)c2c(O)c3ccccc3n(C)c2=O)cc1 | 20 µM [falling, single point]
COC(=O)c1c(NC(=O)CSc2nnnn2C)sc(C)c1C | 10 µM [rising, partial curve]
Cc1ccc(S(=O)(=O)N(C)c2ccc(OCC(=O)OCc3c(C)noc3C)cc2)cc1 | 5.01 µM [falling, single point]
COc1ccc(-n2c3c(cc(C(=O)NC4CCSC4=O)c2=O)C(=O)CC(C)(C)C3)cc1 (stereo unspecified) | 0.00316 µM [falling, full curve, poor fit]
N#CCCn1c(=O)c(CCc2ccccc2)nc2cnc(Oc3ccccc3)nc21 | 0.126 µM [falling, single point]
CCCCNS(=O)(=O)c1ccc2nc(SCC(=O)c3ccc(C#N)cc3)[nH]c2c1 | 3.98 µM [falling, single point]
COc1cc(-c2nn3c(Cc4ccccc4)nnc3s2)cc(OC)c1OC | 0.501 µM [rising, full curve]
Cn1c(C(=O)N2CCN(c3ncccn3)CC2)cc2c(=O)n(C)c3ccccc3c21 | 3.98 µM [rising, single point]
CCc1nc(NCc2ccco2)c2oc3ccccc3c2n1 | 3.16 µM [rising, full curve]
Cn1c(=O)c2cc(S(=O)(=O)NCCC(=O)N3CC=C(c4ccccc4)CC3)ccc2n(C)c1=O | 25.1 µM [rising, single point]
OCCn1c(CSc2nnc(-c3ccco3)n2-c2ccccc2)nc2ccc(Cl)cc21 | 0.398 µM [rising, full curve]
N=P(N1CCOCC1)(N1CCOCC1)C12CC3CC(CC(C3)C1)C2 | 5.01 µM [falling, single point]
Cc1ccc(-c2cc(C(F)(F)F)n3ncc(C(=O)NCc4ccco4)c3n2)cc1 | 0.398 µM [rising, partial curve]
CCCCN(C(=O)NC(=O)C1=C(N2CCOCC2)/C(=C/c2ccccc2)CC1)S(C)(=O)=O | 12.6 µM [rising, single point]
Cc1ccc(-n2c(N)c(C(=O)N3CCN(C)CC3)sc2=S)cc1 | 10 µM [rising, single point]
Cn1c2ccccc2c2ncn(CCN3CCOCC3)c(=O)c21 | 25.1 µM [rising, single point]
COc1ccc(CCNC(=O)C2CC(=O)N(c3ccccc3)C2)cc1OC (stereo unspecified) | 0.631 µM [falling, partial curve]

A different layout for some results above.
Structure (SMILES)	AC50
COc1cccc(-c2cc(NCCc3c[nH]c4ccc(OC)cc34)ncn2)c1	5.01 µM [rising, partial curve]
COc1ccc(CC(=O)Nc2nccs2)cc1OC	12.6 µM [rising, single point]
